The source of these data is publication PMC2575377.

Results are given in words; binding and its absence hold for the method and conditions named. In cells and extracts the contact can be indirect. Binding can be weak; no strength is given.

The target in assay [1] is T1, intercellular adhesion molecule-2 (ICAM-2), full length (human) (UniProt P13598).
T1 sequence: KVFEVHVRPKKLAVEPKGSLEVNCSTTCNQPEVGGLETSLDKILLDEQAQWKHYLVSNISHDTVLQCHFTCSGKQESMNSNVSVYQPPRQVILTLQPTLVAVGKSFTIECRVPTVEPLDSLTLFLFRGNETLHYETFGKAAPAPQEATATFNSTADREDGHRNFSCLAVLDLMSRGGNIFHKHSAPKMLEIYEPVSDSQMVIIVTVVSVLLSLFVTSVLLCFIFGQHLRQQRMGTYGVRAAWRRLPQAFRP
Nature of the assay: co-IP; lysates of SK-N-AS transfectants (pIRESneo, pIRES.ICAM2, pIRES.ICAM2ΔCD) immunoprecipitated with the antibody that recognized the N-terminus of ICAM-2; immunoblot for ICAM-2, α-actinin or actin (Fig. S1, Fig. 3B). On the technique in general: Immunoblotting shows a protein as a band on a membrane.

Assay [2] deals with α-actinin (human (endogenous in SK-N-AS)). Briefly: co-IP; lysate of SK-N-ASpIRES.ICAM2 cells immunoprecipitated with a monoclonal antibody to α-actinin (MAB1682) or control immunoglobulin; immunoblot for ICAM-2 and actin.

For the molecule “α-actinin (human (endogenous in SK-N-AS))”, the binding entry in assay [1] is “binds”.

B1: intercellular adhesion molecule-2 (ICAM-2), full length (protein, UniProt P13598 25-275)
chain: T1 sequence
In the case of B1, the binding result in assay [2] is recorded as “binds”.
